# PubChem BioAssay AID504791 – Drosophila RNAi Screening Center, 2011
# Assay: 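Genes whose knock-down strengthens or weakens small-RNA reporter silencing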 (primary screen)
# Cells: Drosophila S2-derived reporter cells
# Knock-down reagent: long dsRNA against Drosophila genes, about 150-250 ng dsRNA per well (siRNA assay); about 80-120 ng (miRNA assay)
# Duration: about 5 days (siRNA assay); about 4 days (miRNA assay)
# Conditions: copper sulfate induction of reporters: 25 µM (siRNA assay); 200 mM stated (miRNA assay), 1-2 days before reading
# Read-out: 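Per-well ratio of Renilla over firefly light, expressed relative to that plate's average ratio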
# Call rule: 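a well was a first-pass pick when its plate-scaled ratio rose above 1.5 (siRNA assay) or 1.6 (miRNA assay), or dropped below 0.6; a gene counted only if two separate dsRNAs agreed on retest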
# The deposit covers about 23,000 reagents; shown is an unselected part of those that have a named target and a result. Of all reagents, 199 (0.86%) were called active. 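Plate-scaled ratios behind the calls are not deposited; printed light signals are raw; many rows marked increased or decreased are still called inactive.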 Reagents against one gene are numbered here. A plus sign joins genes that one reagent is predicted to hit. Not stated in the record: the direction of the score.
Gene,dsRNA no.,stable siRNA reporter change,"stable assay Renilla, run 1 (luminescence)","stable assay firefly, run 1 (luminescence)",outcome
Bhmt,1,,7611,4.86e5,inactive
CG8757,1,,5744,3.82e5,inactive
ERp60,1,reporter ratio raised past the hit cutoff,38912,4.56e5,inactive
Ack,1,,7222,3.31e5,inactive
CG6891,1,reporter ratio lowered past the hit cutoff,3924,3.85e5,inactive
mamo,1,,5999,4.59e5,inactive
Grik,1,,8911,3.89e5,inactive
Grik,2,,8158,3.33e5,inactive
px,1,,13840,3.70e5,inactive
px,2,,3052,2.90e5,inactive
Dyrk2,1,,6478,1.49e6,inactive
CG18128,1,,6400,3.48e5,inactive
alphaTub67C,1,,7861,4.40e5,inactive
CG32473,1,,7259,4.50e5,inactive
CG32473,2,,8191,5.62e5,inactive
MYPT-75D,1,,9326,3.06e5,inactive
CadN2 + CG42830,1,,6083,3.70e5,inactive
CadN2 + CG42830,2,,6591,4.00e5,inactive
CadN2 + CG42830,3,,7508,4.27e5,inactive
CG31103,1,,9481,5.00e5,inactive
colt,1,,39182,4.07e5,inactive
CG7156,1,,7658,2.71e5,inactive
CG9747,1,,3611,2.89e5,inactive
ND-B15,1,,5259,3.22e5,inactive
IleRS-m,1,,7007,2.86e5,inactive
CG31601,1,,4519,2.98e5,inactive
Ntf-2r,1,,8478,4.43e5,inactive
toe,1,,3419,3.48e5,inactive
toe,2,,5679,3.09e5,inactive
CG32189,1,,6832,4.23e5,inactive
CG7656,1,reporter ratio lowered past the hit cutoff,4999,4.27e5,inactive
Ski6,1,,8184,3.81e5,inactive
Tmem43,1,,6346,4.34e5,inactive
Mpc1,1,reporter ratio lowered past the hit cutoff,8939,6.51e5,inactive
CG42449,1,,4576,3.92e5,inactive
CG43338,1,,9172,4.34e5,inactive
CG32017,1,,5914,3.44e5,inactive
Eaf,1,,2876,2.46e5,inactive
Eaf,2,,38395,1.46e6,inactive
Eaf,3,,9016,6.05e5,inactive
glob1,1,,10293,4.94e5,inactive
ovm + CG31975,1,,10468,6.57e5,inactive
CG1317,1,,8142,2.95e5,inactive
tub,1,,3731,4.07e5,inactive
tub,2,,3963,3.33e5,inactive
CG2915,1,,7718,3.27e5,inactive
Pkc53E,1,,6807,4.06e5,inactive
Pkc53E,2,,8803,2.82e5,inactive
Tsp42Ef,1,,5764,4.77e5,inactive
MsR2 + CG13802 (retired record),1,,6499,4.30e5,inactive
MsR2 + CG13802 (retired record),2,,6383,4.14e5,inactive
MsR2 + CG13802 (retired record),3,,4584,4.23e5,inactive
Gcat,1,,7454,6.53e5,inactive
CG6220,1,,6866,3.59e5,inactive
CG15387,1,,7248,3.97e5,inactive
ppk12,1,,7231,4.90e5,inactive
ida,1,,6935,3.74e5,inactive
CG14855,1,,6236,3.27e5,inactive
CG15536,1,,5118,3.58e5,inactive
CG15536,2,,5242,5.89e5,inactive
CG14419,1,,6258,3.68e5,inactive
Ugt36A1,1,,8168,4.31e5,inactive
Uqcc1 + CG9948,1,,5951,3.98e5,inactive
betaGlu,1,,7435,4.45e5,inactive
CG8613,1,,8014,4.60e5,inactive
CG11131,1,,7406,5.18e5,inactive
CG11131,2,,9537,4.37e5,inactive
Pym,1,,2171,2.31e5,inactive
Pym,2,,4223,3.40e5,inactive
EMC3,1,,6902,5.27e5,inactive
PpD5,1,,8057,5.55e5,inactive
PpD5,2,,5784,4.13e5,inactive
CG16743,1,,6039,2.99e5,inactive
CG4629,1,,7295,4.30e5,inactive
CG15239,1,,5694,4.37e5,inactive
beat-Va,1,,7707,4.92e5,inactive
CG5001,1,,7462,4.06e5,inactive
LeuRS,1,,9189,7.16e5,inactive
CG11400,1,,6336,3.26e5,inactive
CG14370,1,,6546,4.09e5,inactive
CG13716,1,,3736,4.11e5,inactive
CG13716,2,,3340,4.09e5,inactive
CG9399,1,,6882,4.06e5,inactive
CG11085,1,,4964,4.88e5,inactive
CG11085,2,,4424,3.74e5,inactive
spo,1,,5652,3.47e5,inactive
Tmem214,1,,8231,4.54e5,inactive
Tmem214,2,,8036,5.68e5,inactive
CG32631,1,reporter ratio lowered past the hit cutoff,4447,4.94e5,inactive
Dnaaf6,1,,8886,4.18e5,inactive
CG11596,1,,8546,4.78e5,inactive
CG34176,1,,7334,4.10e5,inactive
CG8507,1,,7675,4.12e5,inactive
ppk15,1,,8711,4.06e5,inactive
Eig71Ec,1,,8438,4.94e5,inactive
CG4896,1,,32456,4.00e5,inactive
Dop2R,1,,5390,4.03e5,inactive
Dop2R,2,,5614,4.02e5,inactive
CG7706,1,,10005,5.02e5,inactive
Stim,1,,9819,6.96e5,inactive
CG13743,1,,5018,4.50e5,inactive
CG13743,2,,4368,1.65e5,inactive
CG13743,3,,3899,3.46e5,inactive
CG12784,1,,8074,4.81e5,inactive
Sfp38D,1,,5204,3.58e5,inactive
Nepl21,1,,8494,6.56e5,inactive
